Measurements taken from PMC5333127, “RD26 mediates crosstalk between drought and brassinosteroid signalling pathways” (Nature Communications, 2017).
The exact form of at least one protein or probe is not confirmed. No signal at the amounts used counts as a negative. At least one verdict rests on a figure or table, not on a statement of the authors. Tags and fusion partners may be left off the protein sequences shown. For part of these data: A weaker result is weaker than the reference pair of the same experiment.

Assays:
[1] = target: T1, BES1 (Arabidopsis thaliana) (UniProt Q9LN63); test: EMSA; conditions: 25 mM HEPES-KOH pH 8.0, 1 mM DTT, 50 mM KCl, 10% glycerol, 20 μl, about 0.2 ng probe, 40 min on ice; 5% native PAGE in 1x TGE; recombinant protein; label: 32P 5' end
T1 sequence (looked up, limits assumed): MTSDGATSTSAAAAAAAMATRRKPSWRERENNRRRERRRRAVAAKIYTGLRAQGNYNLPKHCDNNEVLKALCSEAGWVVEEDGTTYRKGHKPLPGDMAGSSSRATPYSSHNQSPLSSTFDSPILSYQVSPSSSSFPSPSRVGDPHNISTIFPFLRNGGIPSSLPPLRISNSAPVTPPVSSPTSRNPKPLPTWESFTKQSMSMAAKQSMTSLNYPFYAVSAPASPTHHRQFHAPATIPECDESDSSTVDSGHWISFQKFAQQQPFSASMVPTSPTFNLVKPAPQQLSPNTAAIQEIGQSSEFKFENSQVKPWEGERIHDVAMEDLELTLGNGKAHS

[2] = target: T2, RD26 (ANAC072) (Arabidopsis thaliana) (UniProt Q93VY3); test: EMSA; conditions: 25 mM HEPES-KOH pH 8.0, 1 mM DTT, 50 mM KCl, 10% glycerol, 20 μl, about 0.2 ng probe, 40 min on ice, 5% native PAGE in 1x TGE, recombinant protein, label: 32P 5' end
T2 sequence (looked up, limits assumed): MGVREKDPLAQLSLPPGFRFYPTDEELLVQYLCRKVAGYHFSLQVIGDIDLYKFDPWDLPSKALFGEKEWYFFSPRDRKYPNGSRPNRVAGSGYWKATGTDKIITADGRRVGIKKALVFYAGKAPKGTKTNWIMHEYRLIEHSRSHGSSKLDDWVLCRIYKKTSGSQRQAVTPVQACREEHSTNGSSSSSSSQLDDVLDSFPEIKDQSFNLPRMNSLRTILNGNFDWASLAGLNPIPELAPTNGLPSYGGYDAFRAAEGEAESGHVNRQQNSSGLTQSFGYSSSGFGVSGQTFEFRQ

| Sequence | binding result [1] | binding result [2] | binding result ([2]; weaker than BES1) |
| --- | --- | --- | --- |
| ATTACCTAACTATAAAAAAATAATGTGTTC (double strand) [At4g00360 E-box MU] | no binding | no binding | – |
| AAACCGAAAACACGTGTGAGAAAGAAGAAA (double strand) [At4g18010 BRRE WT] | – | – | binds more weakly |
